# The list shows a part of the results. Shown are side measurements of this screen, not its main read-out; they come without a call. The list favours compounds with an active or inconclusive main result. The note in brackets gives the kind of curve behind each potency; many fits are weak.
# Experiment: IkB Signaling
# Conditions: ABC-DLBCL IkBa-CBG/CBR dual luciferase ratio (green luciferase fused to IkBa over red control in OCI-Ly3 lymphoma cells), 4 h
# How it was run: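 Luminescence ratio of IκBα-fused green versus native red beetle luciferase in OCI-Ly3 cells, 4 h post-doxycycline with compound; red signal alone, scaled from basal (0%) to zero light (-100%), flagged nonspecific or cytotoxic effects.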
# [1] = measured here: control luc red channel unless noted
structure (smiles),measurement,setting,value
Cc1cc(C)c(NS(=O)(=O)c2ccc3c(c2)NC(=O)CCS3)c(C)c1,AC50,[1],"20 µM [falling, partial curve]"
CCc1ccccc1NS(=O)(=O)c1ccc(SC)cc1,AC50,[1],"20 µM [falling, partial curve]"
COc1ccccc1N1CCN(C[C@@H](O)COc2cccc3ccccc23)CC1,AC50,[1],"31.6 µM [falling, partial curve]"
COC(=O)C1=C(C)NC(C)=C([N+](=O)[O-])[C@@H]1c1ccccc1C(F)(F)F,AC50,[1],"39.8 µM [falling, single point]"
CCCCN(CCCNC(=O)c1c(C)cc(=O)oc1C)c1ccccc1,AC50,[1],"39.8 µM [falling, single point]"
CC(=O)c1ccc(NC(=O)CSc2nnc(NC(=O)NC3CCCCC3)s2)cc1,AC50,[1],"39.8 µM [falling, single point]"
O=C(COc1ccccc1Cl)Nc1ccc2c(c1)OCCO2,AC50,[1],"25.1 µM [falling, single point]"
CCOC(=O)c1cc(-c2ccccc2)n(CC(=O)Nc2cc(Cl)c(OC)cc2OC)c1C,AC50,[1],"1 µM [rising, full curve]"
Cc1nn(C(C)C(=O)Nc2cccc(F)c2)c(=O)c2c1sc1ccccc12 (configuration not stated),AC50,[1],"10 µM [falling, partial curve]"
Cc1ccc(Nc2c(-c3ccc(N4CCOCC4)cc3)nc3ncccn23)c(C)c1,AC50,[1],"31.6 µM [falling, single point]"
CC(C)C(c1nnnn1Cc1ccccc1)N1CCN(Cc2ccc3c(c2)OCO3)CC1 (configuration not stated),AC50,[1],"6.31 µM [falling, single point]"
Cc1sc2ncn3ncnc3c2c1C,AC50,[1],"12.6 µM [falling, partial curve]"
CC(C)COc1ccc(C(=O)Nc2onc3c2CCCC3)cc1,AC50,[1],"5.01 µM [rising, partial curve, poor fit]"
CCc1ccc(N2CC(c3nc4ccccc4n3Cc3ccccc3C)CC2=O)cc1 (configuration not stated),AC50,[1],"10 µM [falling, partial curve]"
CCOc1ccc(C(=O)NCCc2sc(-c3cccc(F)c3)nc2C)cc1OCC,AC50,[1],"20 µM [falling, single point]"
CCOC(=O)c1cnc2ccc(OC(F)(F)F)cc2c1Nc1ccccc1C(=O)O,AC50,[1],"20 µM [falling, single point]"
Cc1ccc(NC(=O)CCCN2C(=O)COc3ccc(C)cc32)c(Cl)c1,AC50,[1],"10 µM [falling, single point]"
c1ccc(N2CCN(c3ncnc4c3oc3ccccc34)CC2)cc1,AC50,[1],"3.98 µM [falling, full curve]"
CCC(C)NC(=O)c1c(N)n(/N=C/c2cccnc2)c2nc3ccccc3nc12 (configuration not stated),AC50,[1],"1 µM [falling, full curve]"
COc1ccc(-c2cnc(C)o2)cc1S(=O)(=O)Nc1cccc(C(F)(F)F)c1,AC50,[1],"31.6 µM [falling, partial curve]"
O=C(Nc1cccc(C(F)(F)F)c1)C1CCN(S(=O)(=O)c2cccc3nsnc23)CC1,AC50,[1],"5.01 µM [falling, full curve, poor fit]"
COc1ccc(C(=O)CC2(O)C(=O)N(CCc3ccccc3)c3ccc(Br)cc32)cc1OC (configuration not stated),AC50,[1],"20 µM [falling, partial curve]"
O=C(Cn1nc2c(cc1=O)CCCC2)NCc1ccccc1,AC50,[1],"3.16 µM [rising, single point]"
O=c1cc(CSc2nnnn2-c2ccccc2)nc2scc(-c3ccccc3)n12,AC50,[1],"20 µM [falling, partial curve]"
COc1cccc(-n2c(=O)c3c4c(sc3n(Cc3ccccc3C#N)c2=O)CCCC4)c1,AC50,[1],"3.98 µM [rising, single point]"
CCOC(=O)/C(C#N)=C1/C=Nc2ccccc2N1,AC50,[1],"3.98 µM [falling, full curve]"
O=S(=O)(c1ccc2nc(Nc3ccc(Br)cc3F)ccc2c1)N1CCCC1,AC50,[1],"0.126 µM [rising, full curve, poor fit]"
c1c2c(cc3sc(N4CCOCC4)nc13)OCCO2,AC50,measured here: IkB-luc green channel,"0.158 µM [rising, full curve, poor fit]"
same,AC50,measured here: control luc red channel,"3.16 µM [falling, full curve, poor fit]"
CN(C(=O)CSc1nc2ccc(NC(=O)c3ccccc3)cc2s1)c1ccccc1,AC50,[1],"12.6 µM [falling, partial curve]"
CCOC(=O)c1[nH]c2ccc(F)cc2c1NC(=O)C(C)N1CCc2cc(OC)c(OC)cc2C1 (configuration not stated),AC50,[1],"12.6 µM [falling, partial curve]"
Cc1ccc(-n2nc(C)c3c(C(=O)Nc4ccc(C)cc4Cl)cc(C)nc32)cc1,AC50,[1],"10 µM [falling, partial curve]"
COc1cc(CN(C(=O)c2ccc(C)cc2)c2ccccn2)cc(OC)c1OC,AC50,[1],"31.6 µM [falling, single point]"
CCOC(=O)CSc1nc(-c2ccc(OC)cc2)cc(C(F)(F)F)c1C#N,AC50,[1],"6.31 µM [rising, partial curve]"
CC(C)(C)C1CCc2c(sc(NC(=O)Cn3nnc(-c4cccc(C(F)(F)F)c4)n3)c2C#N)C1 (configuration not stated),AC50,[1],"7.94 µM [falling, partial curve]"
Cn1c(CNC(=O)CSc2n[nH]c(-c3ccccc3)n2)nc2ccccc21,AC50,[1],"39.8 µM [falling, single point]"
Fc1ccc(Nc2nc3nonc3nc2Nc2cccc(C(F)(F)F)c2)cc1,AC50,[1],"0.501 µM [falling, full curve]"
O=C(Cn1c(=O)n(-c2ccc(Cl)cc2)c(=O)c2c3c(sc21)CCC3)c1ccc(F)cc1,AC50,[1],"12.6 µM [falling, partial curve]"
COc1ccccc1Cn1c(CNS(=O)(=O)c2ccc3c(c2)CCCC3)nc2cccnc21,AC50,[1],"39.8 µM [falling, single point]"
COc1ccccc1N1CCN(C(=O)CSc2nc3ccccc3nc2Cc2ccc(F)cc2)CC1,AC50,[1],"20 µM [falling, partial curve]"
Cc1csc2nc(COc3ccc(NC(=O)COc4ccccc4F)cc3)cc(=O)n12,AC50,[1],"3.98 µM [rising, partial curve]"
CCC(=O)N1c2ccccc2CC1C(=O)NCCN1CCN(c2cccc(C)c2C)CC1 (configuration not stated),AC50,[1],"39.8 µM [falling, partial curve, poor fit]"

# A portion of the results above, for reference:
structure (smiles),measurement,setting,value
Cc1nn(C(C)C(=O)Nc2cccc(F)c2)c(=O)c2c1sc1ccccc12 (configuration not stated),AC50,[1],"10 µM [falling, partial curve]"
Cc1ccc(Nc2c(-c3ccc(N4CCOCC4)cc3)nc3ncccn23)c(C)c1,AC50,[1],"31.6 µM [falling, single point]"
CC(C)C(c1nnnn1Cc1ccccc1)N1CCN(Cc2ccc3c(c2)OCO3)CC1 (configuration not stated),AC50,[1],"6.31 µM [falling, single point]"

# — PubChem BioAssay AID445 (National Center for Advancing Translational Sciences (NCATS), 2006)
